Source: patent publication US20080306275A1, “NOVEL HETEROARYL DERIVATIVE” (Danippon Sumitomo Pharma Co., Ltd., priority 2003, published 2008)
For at least one compound, name, drawing or mass did not settle the structure.

Legend:
human PPARγ = target: T1, human PPARγ (Homo sapiens, UniProt P37231); experiment: GAL4-PPARγ luciferase reporter assay in COS-1 cells; assay type: cell-based; details: relative luciferase activity, vehicle (DMSO) control regarded as 1, 24 hours
T1 construct: human PPARγ (including amino acids residue 204-505); expressed in transfected cells; host or cells: COS-1
T1 sequence (P37231 204-505): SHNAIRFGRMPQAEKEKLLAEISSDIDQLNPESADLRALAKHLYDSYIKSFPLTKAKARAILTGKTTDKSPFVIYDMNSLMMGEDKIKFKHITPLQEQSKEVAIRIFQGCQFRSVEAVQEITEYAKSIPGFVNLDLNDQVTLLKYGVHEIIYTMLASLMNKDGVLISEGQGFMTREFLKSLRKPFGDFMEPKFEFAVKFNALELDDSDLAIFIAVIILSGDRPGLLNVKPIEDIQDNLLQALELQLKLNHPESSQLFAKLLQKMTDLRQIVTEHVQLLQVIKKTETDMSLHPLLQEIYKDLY
Description: (§1) By inserting a gene fragment encoding the ligand binding domain of human PPARα (including amino acid residues 167-468) or a gene fragment encoding the ligand binding domain of human PPARγ (including amino acids residue 204-505) into a multicloning site of expressing vector pM containing DNA binding domain of yeast GAL4 protein (Clonetech), a vector plasmid expressing a fused protein of GAL4 protein DNA binding domain and human PPARα or γ ligand binding domain.
(§2) As a reporter plasmid, pGL3-Basic Vector containing firefly luciferase gene (Promega Corporation) was used wherein Gal4-responsive sequence UAS and rabbit β-globin promoter were inserted.
(§3) For the modification of genetic transformation efficiency, a plasmid containing lacZ gene, pβgal control (Clonetech), was used.
(§4) COS-1 cells were cultured in the phenol red free Dulbecco's Modified Eagles Medium (DMEM) (Gibco) supplemented with 5% activated carbon/dextran stripped fetal bovine serum at 37° C. with 5% carbon dioxide. The COS-1 cells were plated at a concentration of 5×10^4 cells/well into a 24-well plate, and the plate was incubated overnight. The medium was replaced with a fresh medium supplemented without 5% activated carbon/dextran treated fetal bovine serum. Further, the cells were transfected using Lipofectamine plus reagent (Gibco) with plasmid GAL4-PPARα- or γ-expressing plasmid (5 ng), the reporter plasmid (50 ng), pβgal control (350 ng) per well. After incubation for 4 hours, the medium was changed with a fresh medium supplemented with 5% activated carbon/dextran treated fetal bovine serum. […] The luciferase activity therein was measured by a luminometer using the reagent for measuring luciferase which was also accompanied to said System. The β-galactosidase activity was measured using a β-galactosidase enzyme assay system (Promega Corporation) to correct the generic transfection efficiency.
(§5) The PPARα- or γ-agonistic activity was expressed as a relative activity where the luciferase activity in the well to which the vehicle (DMSO) was added as control was regarded as 1.

human PPARα = target: T2, human PPARα (Homo sapiens, UniProt Q07869); experiment: GAL4-PPARα luciferase reporter assay in COS-1 cells; assay type: cell-based; details: relative luciferase activity, vehicle (DMSO) control regarded as 1, 24 hours
T2 construct: human PPARα (including amino acid residues 167-468); expressed in transfected cells; host or cells: COS-1
T2 sequence (Q07869 167-468): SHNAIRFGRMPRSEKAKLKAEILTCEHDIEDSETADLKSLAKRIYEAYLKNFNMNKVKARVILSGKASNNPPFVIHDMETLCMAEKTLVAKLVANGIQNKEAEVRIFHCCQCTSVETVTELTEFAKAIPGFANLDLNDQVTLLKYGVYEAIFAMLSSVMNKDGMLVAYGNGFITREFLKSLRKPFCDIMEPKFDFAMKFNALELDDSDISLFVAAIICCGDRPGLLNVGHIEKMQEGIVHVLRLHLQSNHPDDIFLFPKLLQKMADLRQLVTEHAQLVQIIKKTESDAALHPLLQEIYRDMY
Description: as §1, §2, §3, §4, §5

| SMILES | PPARγ-agonistic activity (10 μM) (human PPARγ) | PPARα-agonistic activity (10 μM) (human PPARα) |
| --- | --- | --- |
| Cc1ccc(C(=O)c2nccn2C/C=C/c2ccc(CO[C@H](C)C(=O)O)cc2)cc1 [compound 27] | 9.9 | 16.2 |
| COc1ccc(C(=O)c2nccn2C/C=C/c2ccc(CO[C@H](C)C(=O)O)cc2)cc1 [compound 29] | 7.3 | 12.5 |
| Cc1ccc(C(=O)c2nc3ccccc3n2C/C=C/c2ccc(COC(C)(C)C(=O)O)cc2)cc1 [compound 38] | 4.7 | 11.6 |
